Test results as given in US20230159935.

Amino acid sequences for entries named in this document (tags omitted). A change or cut given only in a name is not applied to a line headed by its entry. Residues count along the entry.
UniProt Q62351, whole entry: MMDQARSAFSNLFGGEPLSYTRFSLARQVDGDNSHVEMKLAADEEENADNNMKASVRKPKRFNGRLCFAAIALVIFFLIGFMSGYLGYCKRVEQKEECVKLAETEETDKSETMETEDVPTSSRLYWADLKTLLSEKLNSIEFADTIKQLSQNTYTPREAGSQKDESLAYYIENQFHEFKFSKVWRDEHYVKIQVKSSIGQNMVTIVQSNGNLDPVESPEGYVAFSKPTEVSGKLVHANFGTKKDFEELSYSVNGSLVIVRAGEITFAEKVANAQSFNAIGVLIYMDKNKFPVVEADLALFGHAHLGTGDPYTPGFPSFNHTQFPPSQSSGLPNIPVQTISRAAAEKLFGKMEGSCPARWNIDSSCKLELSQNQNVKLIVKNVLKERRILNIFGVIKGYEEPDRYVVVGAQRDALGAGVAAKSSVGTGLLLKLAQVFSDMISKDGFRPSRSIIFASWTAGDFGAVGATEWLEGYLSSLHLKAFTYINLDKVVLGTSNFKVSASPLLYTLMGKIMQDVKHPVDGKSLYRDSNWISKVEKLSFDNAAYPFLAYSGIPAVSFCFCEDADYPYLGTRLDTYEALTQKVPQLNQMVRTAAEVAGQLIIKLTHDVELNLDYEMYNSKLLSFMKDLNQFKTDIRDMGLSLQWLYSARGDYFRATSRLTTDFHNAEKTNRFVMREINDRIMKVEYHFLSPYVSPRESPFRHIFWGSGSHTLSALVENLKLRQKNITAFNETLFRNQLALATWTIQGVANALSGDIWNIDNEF
UniProt P04271, 2-92: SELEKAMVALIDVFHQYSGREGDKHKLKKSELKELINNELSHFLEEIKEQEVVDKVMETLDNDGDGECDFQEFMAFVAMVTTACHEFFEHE

What was measured:
[1] = target: Transferrin receptor (TfR) on bEnd.3 cells (Mus musculus) (UniProt Q62351); assay: flow cytometry; conditions: protein on the cell surface
[2] = target: Transferrin receptor (TfR) on bEnd.3 cells (Mus musculus) (UniProt Q62351); assay: activity in cells; conditions: 90 min, protein on the cell surface, dose not given here
[3] = test system: Tau441 (2N4R tau) (Homo sapiens); assay: inhibition of the protein; conditions: purified recombinant protein, single-stranded DNA, dose not given here
[4] = test system: Endogenous Tau in N2a cells (Mus musculus); assay: activity in cells; conditions: dose-dependent reduction of okadaic acid-induced tau oligomers and P-Tau, lipofectamine; protein in cells; single-stranded DNA; variant of BW1b; dose not given here
[5] = test system: Tau441 (2N4R tau) (Homo sapiens); assay: binding assay; conditions: dot blot, 100 nM; weaker than BW1; purified recombinant protein; label: 5' Cy5; single-stranded DNA; variant of BW1
[6] = test system: IgG; assay: binding assay; conditions: dot blot, purified native protein, single-stranded DNA
[7] = test system: Phosphorylated Tau (P-Tau); assay: binding assay; conditions: dot blot, only one main band at native Tau; purified recombinant protein; label: FAM; single-stranded DNA
[8] = test system: Casein (alpha and beta); assay: binding assay; conditions: dot blot, purified native protein, single-stranded DNA
[9] = target: S100B (UniProt P04271); assay: EMSA; conditions: purified recombinant protein
[10] = transport, single-stranded DNA, variant of Circular Tau-TfR bispecific aptamer
[11] = inhibits arachidonic acid-induced oligomerization, label: FAM

Does “CGTAAATCAGTCAGAAGGCGTGGTACCACGCTTTC [TfR aptamer (13-base extended)]” bind ([1]; smaller shift than circular aptamer, label: FITC-dT near 3' end, single-stranded DNA)?
Result: binds

Which “functional effect of the aptamer” value [2, 10] does the source give for “CGTAAATCAGTCAGAAGGCGTGGTACCACGCTTTCTGACTGATTTACGGAAGCTGAATAAGGACTGCTTAGGATTGCGATGATTCAGCTTC [Linear IT2a-TfR aptamer]” here?
The value was “less active”.

How did the “functional effect of the aptamer” value ([2]; transport control, folded or branched DNA, variant of Circular Tau-TfR bispecific aptamer) turn out when “CGTAAATCAGTCAGAAGTCGACGCCGGTCGACTTCTGACTGATTTACGGAAGTTACGGACGGATGTCAGTGGTATAGTAATCCGTAACTTC” was run?
Its value is “not active”.

For “CTGAATAAGGACTGCTTAGGATTGCGATGATTCAG [IT2a aptamer]”, which “functional effect of the aptamer” value ([3]; inhibits aggregation (ThT), less than BW1 and BW1c) is on record?
The value was “active”.

With “GACGATAGCATCACTCCCCCCCACCTATTACATCATCATAAATTGAGTGCTATCGTC [BW1c]” as the sequence, how does the “functional effect of the aptamer” value [4] read?
Its value is “active”.

What about the “functional effect of the aptamer” value ([3]; inhibits arachidonic acid/heparin-induced aggregation (ThT) and GSK3B phosphorylation, label: 5' Cy5, variant of BW1b) of the same sequence?
The value was “active”.

Does “GACGATGGCATCACTCCCCCCCACCTATTACATCATCATAAATTGAGTGCTATCGTC [BW1b]” bind [5]?
Result: binds more weakly

Does “GACTTGACGATGGCATCACTCCCCCCCACCTATTACATCATCATAAATTGAGTGCTATCGTCTGTC [BW1a]” bind [5]?
Result: binds more weakly

Does “TCACCTGAGACTTGACGATGGAACTCCCCCCACCATTATCAGCGCACCACCATTGTAGAGTGCTATCGTCTGTCCA [BW3]” bind ([6]; label: FAM)?
Result: no binding

Does “TCACCTGAGACTTGACGATGGAACTCCCCCCACCATTATCAGCGCACCACCATTGTAGAGTGCTATCGTCTGTCCA [BW3]” bind [7]?
Result: no binding

Does “TCACCTGAGACTTGACGATGGAACTCCCCCCACCATTATCAGCGCACCACCATTGTAGAGTGCTATCGTCTGTCCA [BW3]” bind ([8]; label: FAM)?
Result: no binding

And the “functional effect of the aptamer” value [3, 11]?
Its value is “active”.

What does the source list for “TCACCTGAGACTTGACGATGGCAATCCCCCCGACACCGAATCCTAAGCGAACAACGCGAGTGCTATCGTCTGTCCA [BW10]”?
binding result ([6]; label: FAM): no binding; binding result [7]: no binding; binding result ([8]; label: FAM): no binding; functional effect of the aptamer [3, 11]: active

Does “TCACCTGAGACTTGACGATGGCACTACCCCTCCCTACTAAGCACGGTATCTTGTACTGAGTGCTATCGTCTGTCCA [BW8]” bind ([6]; label: FAM)?
Result: no binding

Does “TCACCTGAGACTTGACGATGGCACTACCCCTCCCTACTAAGCACGGTATCTTGTACTGAGTGCTATCGTCTGTCCA [BW8]” bind [7]?
Result: no binding

Does “TCACCTGAGACTTGACGATGGCACTACCCCTCCCTACTAAGCACGGTATCTTGTACTGAGTGCTATCGTCTGTCCA [BW8]” bind ([8]; label: FAM)?
Result: no binding

And the “functional effect of the aptamer” value [3, 11]?
The value was “active”.

Which results are given for “TCACCTGAGACTTGACGATGGCATCACTCCCCCCCACCTATTACATCATCATAAATTGAGTGCTATCGTCTGTCCA [BW1]”?
binding result ([6]; label: FAM or 5' Cy5): no binding; binding result ([8]; label: FAM or 5' Cy5): no binding; functional effect of the aptamer ([3]; inhibits arachidonic acid/heparin-induced aggregation (most robust) and GSK3B phosphorylation, label: FAM or 5' Cy5): active

Does “TCACCTGAGACTTGACGATGGCCTCCCCCTCACGCACTCTTCCGTTTCTTCTTATCTGAGTGCTATCGTCTGTCCA [BW2]” bind ([6]; label: FAM)?
Result: no binding

Does “TCACCTGAGACTTGACGATGGCCTCCCCCTCACGCACTCTTCCGTTTCTTCTTATCTGAGTGCTATCGTCTGTCCA [BW2]” bind [7]?
Result: no binding

Does “TCACCTGAGACTTGACGATGGCCTCCCCCTCACGCACTCTTCCGTTTCTTCTTATCTGAGTGCTATCGTCTGTCCA [BW2]” bind ([8]; label: FAM)?
Result: no binding

What about the “functional effect of the aptamer” value [3, 11] of the same sequence?
Its value is “active”.

Does “TCACCTGAGACTTGACGATGGGAACAAACACCGCGACCACCCCCCCACTTAACTCCTGAGTGCTATCGTCTGTCCA [BW9]” bind ([6]; label: FAM)?
Result: no binding

Does “TCACCTGAGACTTGACGATGGGAACAAACACCGCGACCACCCCCCCACTTAACTCCTGAGTGCTATCGTCTGTCCA [BW9]” bind [7]?
Result: no binding

Does “TCACCTGAGACTTGACGATGGGAACAAACACCGCGACCACCCCCCCACTTAACTCCTGAGTGCTATCGTCTGTCCA [BW9]” bind ([8]; label: FAM)?
Result: no binding

What about the “functional effect of the aptamer” value [3, 11] of the same sequence?
Its value is “active”.

Does “TCACCTGAGACTTGACGATGGTACGACGGCCCCCCGATTATGCGACTACTTGATTTGAGTGCTATCGTCTGTCCA [BW5]” bind ([6]; label: FAM)?
Result: no binding

Does “TCACCTGAGACTTGACGATGGTACGACGGCCCCCCGATTATGCGACTACTTGATTTGAGTGCTATCGTCTGTCCA [BW5]” bind [7]?
Result: no binding

Does “TCACCTGAGACTTGACGATGGTACGACGGCCCCCCGATTATGCGACTACTTGATTTGAGTGCTATCGTCTGTCCA [BW5]” bind ([8]; label: FAM)?
Result: no binding

What about the “functional effect of the aptamer” value [3, 11] of the same sequence?
Its value is “active”.

Does “TCACCTGAGACTTGACGATGGTCAGAACGACGCGCCCCCCACCTCATTCATTATTTTGAGTGCTATCGTCTGTCCA [BW6]” bind ([6]; label: FAM)?
Result: no binding

Does “TCACCTGAGACTTGACGATGGTCAGAACGACGCGCCCCCCACCTCATTCATTATTTTGAGTGCTATCGTCTGTCCA [BW6]” bind [7]?
Result: no binding

Does “TCACCTGAGACTTGACGATGGTCAGAACGACGCGCCCCCCACCTCATTCATTATTTTGAGTGCTATCGTCTGTCCA [BW6]” bind ([8]; label: FAM)?
Result: no binding

And the “functional effect of the aptamer” value [3, 11]?
Its value is “active”.

Does “TCACCTGAGACTTGACGATGGTGACCACCCCCCACGCACACACACCTCTTCCATCCTGAGTGCTATCGTCTGTCCA [BW7]” bind ([6]; label: FAM)?
Result: no binding

Does “TCACCTGAGACTTGACGATGGTGACCACCCCCCACGCACACACACCTCTTCCATCCTGAGTGCTATCGTCTGTCCA [BW7]” bind [7]?
Result: no binding

Does “TCACCTGAGACTTGACGATGGTGACCACCCCCCACGCACACACACCTCTTCCATCCTGAGTGCTATCGTCTGTCCA [BW7]” bind ([8]; label: FAM)?
Result: no binding

And the “functional effect of the aptamer” value [3, 11]?
The value was “active”.

Does “TCACCTGAGACTTGACGATGGTTTAACTCCCCCACGCCCCCCGCCAACCCATCTCCAGAGTGCTATCGTCTGTCCA [BW4]” bind ([6]; label: FAM)?
Result: no binding

Does “TCACCTGAGACTTGACGATGGTTTAACTCCCCCACGCCCCCCGCCAACCCATCTCCAGAGTGCTATCGTCTGTCCA [BW4]” bind [7]?
Result: no binding

Does “TCACCTGAGACTTGACGATGGTTTAACTCCCCCACGCCCCCCGCCAACCCATCTCCAGAGTGCTATCGTCTGTCCA [BW4]” bind ([8]; label: FAM)?
Result: no binding

What about the “functional effect of the aptamer” value [3, 11] of the same sequence?
Its value is “active”.

Does “TGACTGATTTACGGAAGCTGAATAAGGACTGCTTAGGATTGCGATGATTCAGCTTC [IT2a Tau aptamer (13-base extended)]” bind ([9]; profile stated same as circular aptamer, label: FITC-dT near 3' end, single-stranded DNA)?
Result: no binding

And the “functional effect of the aptamer” value ([2]; transport control, single-stranded DNA)?
The value was “not active”.

For “TGACTGATTTACGGAAGCTGAATAAGGACTGCTTAGGATTGCGATGATTCAGCTTCCGTAAATCAGTCAGAAGCTGAATAAGGACTGCTTAGGATTGCGATGATTCAGCTTC [Circular IT2a/cIT2a dimeric Tau aptamer]”, which “functional effect of the aptamer” value ([2]; transport control, folded or branched DNA) is on record?
The value was “not active”.

What does the source list for “TGACTGATTTACGGAAGCTGAATAAGGACTGCTTAGGATTGCGATGATTCAGCTTCCGTAAATCAGTCAGAAGGCGTGGTACCACGCTTTC [Circular Tau-TfR bispecific aptamer]”?
binding result ([1]; 400 nM, 4 C, no binding to TfR-negative HEK293T, label: one or two FITC-dT, folded or branched DNA): binds; binding result ([9]; specificity control, label: one or two FITC-dT, folded or branched DNA): no binding; functional effect of the aptamer ([2]; transport across bEnd.3 monolayer, transport ratio 97±4% at 8 h, folded or branched DNA): active

“TTTTTTTTTTTTTGAAGGCGTGGTACCACGCTTTCTTTTTTTTTTTTTGAAGCTGAATAAGGACTGCTTAGGATTGCGATGATTCAGCTTC [Linear T-IT2a-TfR aptamer (poly-T)]” was tested. Which “functional effect of the aptamer” value [2, 10] did it give?
The value was “less active”.

For part of these data: Negatives hold for the conditions tested. For part of these data: Weaker means in comparison with the reference protein, sequence or condition of that experiment. For part of these data: Results from cells or extracts need not show a direct contact. For part of these data: Construct, isoform or probe ends are uncertain for at least one entry.
